# PubChem BioAssay AID1224826 | NIAID – 2016
# Test: 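Knock-downs that raise or lower Tnf reporter signal after endotoxin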 (primary screen)
# Cells: RAW264.7 G9 macrophages from mouse bearing reporters for p65 (GFP) and the Tnf promoter (mCherry)
# Knock-down reagent: siRNA pool against mouse genes, 100 nM
# Duration: 16 h of LPS stimulation, after 2 days of siRNA transfection
# Treatment: bacterial lipopolysaccharide (Salmonella minnesota R595), 10 ng/ml
# Measurement: 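Nuclear mCherry signal of the Tnf promoter reporter measured by imaging after background removal, scaled to each plate median and turned into robust z-scores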
# Reading the numbers: Tnf reporter robust z-score: higher = stronger Tnf promoter reporter signal after LPS
# Rule for the call: 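Called active when robust z-score is at most -1.3, matching the median of the Tlr4 knock-down control, or over 3; control wells and wells with under 50 cells never active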
# Meaning of the calls: active = Tnf reporter clearly lowered or raised; inactive = no clear change in Tnf reporter
# Shown is one part, drawn at random, of about 17,000 reagents tested. About 1,110 of all reagents (6.6%) count as active. 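Active means lowered or raised reporter signal; replicate intensities are raw and not normalised per plate.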 Reagents against one gene are numbered here. Not all columns of the deposit are shown. Reagent sequences are not shown.
gene,reagent,Tnf reporter robust z-score,fewer than 50 cells in well,Outcome
"Serpinb3c (serine (or cysteine) peptidase inhibitor, clade B, member 3C)",1,0.84,enough cells in well,inactive
"Ppp4r2 (protein phosphatase 4, regulatory subunit 2)",1,1.42,enough cells in well,inactive
Nkapl (NFKB activating protein-like),1,0.55,enough cells in well,inactive
"Itpr1 (inositol 1,4,5-trisphosphate receptor 1)",1,-1.25,enough cells in well,inactive
Zfp53 (zinc finger protein 53),1,1.06,enough cells in well,inactive
Klf13 (Kruppel-like transcription factor 13),1,0.05,enough cells in well,inactive
Ccndbp1 (cyclin D-type binding-protein 1),1,0.13,enough cells in well,inactive
Msmb (beta-microseminoprotein),1,0.25,enough cells in well,inactive
Neil1 (nei endonuclease VIII-like 1 (E. coli)),1,-0.38,enough cells in well,inactive
Egfl7 (EGF-like domain 7),1,-0.24,enough cells in well,inactive

Continued; the last 2 above are carried over.
gene,reagent,Tnf reporter robust z-score,fewer than 50 cells in well,Outcome
Neil1 (nei endonuclease VIII-like 1 (E. coli)),1,-0.38,enough cells in well,inactive
Egfl7 (EGF-like domain 7),1,-0.24,enough cells in well,inactive
Cxcl2 (C-X-C motif chemokine ligand 2),1,-0.91,enough cells in well,inactive
Gm4827 (predicted gene 4827),1,-1.12,enough cells in well,inactive
Asb10 (ankyrin repeat and SOCS box-containing 10),1,-0.15,enough cells in well,inactive
Hmx1 (H6 homeobox 1),1,-0.07,enough cells in well,inactive
H3c15 (H3 clustered histone 15),1,-0.38,enough cells in well,inactive
Fst (follistatin),1,0.19,enough cells in well,inactive
Noc2l (NOC2 like nucleolar associated transcriptional repressor),1,-1.13,enough cells in well,inactive
Prss58 (serine protease 58),1,1.01,enough cells in well,inactive
"Cela1 (chymotrypsin-like elastase family, member 1)",1,,fewer than 50 cells per well; well left out of calls,inactive
Ppp2cb,1,0.42,enough cells in well,inactive
Arsb (arylsulfatase B),1,-1.25,enough cells in well,inactive
Arsb (arylsulfatase B),2,1.26,enough cells in well,inactive
Clcc1 (chloride channel CLIC-like 1),1,0.34,enough cells in well,inactive
Mup2 (major urinary protein 2),1,-0.62,enough cells in well,inactive
